Data taken from US10183000B1, “2, 4-dinitroanilino-benzoic acid: novel insulinotropic agent for the treatment of diabetes” (priority 2017, dated 2019).

Experiment: Body weight of STZ-induced diabetic rats during eight weeks of treatment
Type: in vivo, Wistar rats
Conditions: 100 mg/kg

Question: Which “gain in body mass (in words)” value (eight weeks of intervention) does the source give for `O=C(O)c1ccccc1Nc1ccc([N+](=O)[O-])cc1[N+](=O)[O-]` [Compound 1, 2,4-Dinitroanilino-benzoic acid] here?
Answer: no gain in body mass was observed

Question: And the Body weight (STZ-induced diabetic rats, eight weeks, mean ± SE, 06 rats, *P<0.05 vs diabetic group)?
Answer: 160 ± 2.1* g
